## Percent effect of library compounds

Chains of the proteins cited; added tags and fusions are not shown. Residues count along the entry.
UniProt I6X8D2, whole entry: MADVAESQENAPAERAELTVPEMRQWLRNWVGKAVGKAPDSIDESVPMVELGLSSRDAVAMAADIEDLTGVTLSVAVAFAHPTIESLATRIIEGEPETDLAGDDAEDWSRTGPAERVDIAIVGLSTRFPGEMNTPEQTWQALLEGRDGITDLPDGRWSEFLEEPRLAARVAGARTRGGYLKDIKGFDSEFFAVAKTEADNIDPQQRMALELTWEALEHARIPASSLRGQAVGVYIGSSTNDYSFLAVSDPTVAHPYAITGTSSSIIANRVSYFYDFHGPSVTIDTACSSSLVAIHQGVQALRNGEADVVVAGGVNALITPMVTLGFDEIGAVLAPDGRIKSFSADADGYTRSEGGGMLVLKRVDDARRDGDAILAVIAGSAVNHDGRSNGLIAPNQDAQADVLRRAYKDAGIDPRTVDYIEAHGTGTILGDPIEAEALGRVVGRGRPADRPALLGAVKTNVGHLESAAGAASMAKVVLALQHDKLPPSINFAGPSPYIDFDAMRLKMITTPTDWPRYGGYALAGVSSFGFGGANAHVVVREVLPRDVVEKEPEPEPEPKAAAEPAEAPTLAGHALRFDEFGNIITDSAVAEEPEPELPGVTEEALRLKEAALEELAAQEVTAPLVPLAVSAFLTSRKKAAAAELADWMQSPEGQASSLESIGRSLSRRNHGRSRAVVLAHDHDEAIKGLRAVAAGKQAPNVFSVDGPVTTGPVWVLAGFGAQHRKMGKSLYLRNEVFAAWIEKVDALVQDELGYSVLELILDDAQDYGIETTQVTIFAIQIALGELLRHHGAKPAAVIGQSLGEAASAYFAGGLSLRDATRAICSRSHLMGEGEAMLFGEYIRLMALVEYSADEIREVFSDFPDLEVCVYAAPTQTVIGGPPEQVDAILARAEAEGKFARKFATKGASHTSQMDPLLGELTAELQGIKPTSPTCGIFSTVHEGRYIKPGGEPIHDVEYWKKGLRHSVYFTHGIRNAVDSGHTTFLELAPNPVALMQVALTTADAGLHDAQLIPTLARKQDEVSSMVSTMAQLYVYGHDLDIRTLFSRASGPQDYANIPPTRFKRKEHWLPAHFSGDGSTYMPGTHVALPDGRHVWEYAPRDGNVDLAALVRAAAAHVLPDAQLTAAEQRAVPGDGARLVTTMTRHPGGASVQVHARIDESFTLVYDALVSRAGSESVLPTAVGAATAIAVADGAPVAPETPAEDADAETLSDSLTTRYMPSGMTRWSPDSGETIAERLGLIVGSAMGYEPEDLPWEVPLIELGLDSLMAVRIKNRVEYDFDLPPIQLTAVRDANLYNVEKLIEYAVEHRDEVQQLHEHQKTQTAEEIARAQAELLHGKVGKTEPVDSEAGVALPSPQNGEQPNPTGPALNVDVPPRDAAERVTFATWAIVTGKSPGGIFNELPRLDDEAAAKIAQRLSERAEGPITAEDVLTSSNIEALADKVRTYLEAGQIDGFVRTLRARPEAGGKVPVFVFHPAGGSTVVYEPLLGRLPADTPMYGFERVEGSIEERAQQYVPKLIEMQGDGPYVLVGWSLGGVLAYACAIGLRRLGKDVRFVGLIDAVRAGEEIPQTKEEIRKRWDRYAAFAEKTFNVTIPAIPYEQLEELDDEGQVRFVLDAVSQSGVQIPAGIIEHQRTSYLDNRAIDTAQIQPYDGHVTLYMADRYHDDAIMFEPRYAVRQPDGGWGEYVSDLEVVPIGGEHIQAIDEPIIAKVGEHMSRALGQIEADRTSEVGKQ
UniProt Q8IDJ8, 1-583: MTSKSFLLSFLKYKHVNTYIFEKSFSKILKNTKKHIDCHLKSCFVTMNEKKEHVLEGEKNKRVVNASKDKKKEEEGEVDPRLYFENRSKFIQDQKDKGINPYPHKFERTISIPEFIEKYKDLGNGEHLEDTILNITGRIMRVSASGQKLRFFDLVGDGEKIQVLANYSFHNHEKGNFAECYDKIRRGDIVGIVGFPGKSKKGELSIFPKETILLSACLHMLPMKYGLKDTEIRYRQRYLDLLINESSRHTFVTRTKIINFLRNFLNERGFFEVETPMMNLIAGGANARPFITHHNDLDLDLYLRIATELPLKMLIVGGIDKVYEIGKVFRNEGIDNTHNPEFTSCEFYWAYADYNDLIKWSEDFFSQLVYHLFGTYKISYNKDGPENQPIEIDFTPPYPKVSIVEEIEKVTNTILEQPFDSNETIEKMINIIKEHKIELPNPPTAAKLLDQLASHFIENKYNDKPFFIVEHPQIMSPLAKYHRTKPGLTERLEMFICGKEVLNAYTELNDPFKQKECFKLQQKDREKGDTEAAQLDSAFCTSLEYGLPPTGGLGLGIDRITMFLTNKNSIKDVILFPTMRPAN
UniProt A4I591, 1-473: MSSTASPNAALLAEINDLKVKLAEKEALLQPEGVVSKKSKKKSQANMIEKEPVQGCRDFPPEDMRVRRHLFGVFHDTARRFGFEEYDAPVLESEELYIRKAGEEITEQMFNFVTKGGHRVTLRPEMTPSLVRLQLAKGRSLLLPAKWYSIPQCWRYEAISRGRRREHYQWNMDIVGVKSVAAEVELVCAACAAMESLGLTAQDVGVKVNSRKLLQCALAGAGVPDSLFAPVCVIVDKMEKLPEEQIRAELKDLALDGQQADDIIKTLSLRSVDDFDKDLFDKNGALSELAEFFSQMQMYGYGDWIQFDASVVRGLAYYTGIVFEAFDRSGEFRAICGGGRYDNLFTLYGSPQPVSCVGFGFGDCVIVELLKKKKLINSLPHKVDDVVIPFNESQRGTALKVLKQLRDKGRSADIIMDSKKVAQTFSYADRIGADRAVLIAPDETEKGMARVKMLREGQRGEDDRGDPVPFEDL
UniProt Q4DA54, 1-478: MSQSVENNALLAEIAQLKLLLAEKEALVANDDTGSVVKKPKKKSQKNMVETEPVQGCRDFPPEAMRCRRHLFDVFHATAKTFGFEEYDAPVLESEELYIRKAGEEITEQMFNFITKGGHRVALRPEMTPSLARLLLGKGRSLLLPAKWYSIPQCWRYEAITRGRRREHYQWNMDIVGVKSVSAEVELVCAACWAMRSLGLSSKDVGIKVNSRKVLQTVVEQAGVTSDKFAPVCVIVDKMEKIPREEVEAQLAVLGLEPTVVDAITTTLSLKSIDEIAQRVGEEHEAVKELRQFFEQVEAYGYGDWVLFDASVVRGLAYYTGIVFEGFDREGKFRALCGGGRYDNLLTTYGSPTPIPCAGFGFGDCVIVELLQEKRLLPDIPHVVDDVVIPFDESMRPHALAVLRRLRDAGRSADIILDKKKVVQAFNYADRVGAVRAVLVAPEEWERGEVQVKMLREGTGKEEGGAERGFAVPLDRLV

Pks13 thioesterase: 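Enzyme assay of the thioesterase domain of polyketide synthase 13; the read-out is not stated. Target: Polyketide synthase Pks13, Mycobacterium tuberculosis (UniProt I6X8D2). Tested at 30 µM. Higher reads as stronger inhibition (inferred from which compounds were picked for retests). Of about 67,000 compounds tested this way, about 300 (0.46%) reached 50% or more in at least one test.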
PfKRS1: 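Lysine-tRNA ligase, Plasmodium falciparum 3D7 (UniProt Q8IDJ8). Enzyme assay of the cytosolic lysyl-tRNA synthetase in 384-well plates, read by luminescence. Concentration: 30 µM. Direction is inferred from only a few compounds that gave an IC50; most scored high, so higher reads as stronger inhibition. Of about 69,000 compounds tested this way, about 49 (0.071%) reached 50% or more in at least one test.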
LiHisRS: 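Enzyme assay of histidyl-tRNA synthetase; the read-out is not stated. Target: Histidine-tRNA ligase, Leishmania infantum (UniProt A4I591). Compounds at 30 µM. The record gives no direction; compounds that gave an IC50 in retests scored well above the rest, so higher reads as stronger inhibition. The assay is labelled LdHisRS but filed under L. infantum. Of about 69,000 compounds tested this way, about 410 (0.6%) reached 50% or more in at least one test.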
TcHisRS: 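Histidine-tRNA ligase, Trypanosoma cruzi CL Brener (UniProt Q4DA54). Enzyme assay of histidyl-tRNA synthetase; the read-out is not stated. Concentration: 30 µM. Direction is inferred from retests: higher values go with stronger inhibition. Size under these conditions: about 69,000 compounds, about 31 of them at 50% or above in at least one test.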

Each number is a percent effect as filed.
The record does not define 0% and 100%; most values in the screen are far below 50% and negative numbers occur (in some assays of this library far below -100).
The compounds are a random part of those screened.
A dash means the value is not listed here; it may have been measured.

compound	Pks13 thioesterase	PfKRS1	LiHisRS	TcHisRS
O=C(NCc1nnc2n1CCCCC2)N(CC1CCOC1)C1CC1 (configuration not stated)	8.12	-1.431	1.064	3.03
COCC1CN(Cc2ccsc2)Cc2cnn(C)c21 (configuration not stated)	-19.74	5.695	15.28	8.411
Cc1ccc(-n2ncc(C(=O)N(C)C3CCN(C)CC3)c2N)cc1C	16.34	1.353	9.901	10.23
Cc1nn(C)c(N2CCOCC2)c1CNC(C)c1ccco1 (configuration not stated)	-29.71	2.24	20.19	-1.626
CC(=O)NCC1CCN(c2ccnc3ccc(Br)cc23)CC1	-3.945	4.292	8.036	10.34
CN1CCN(C(=O)c2cnsn2)c2cc(F)ccc21	-18.78	-0.2687	23.91	4
Cn1cc(-c2cnc3n2CCC32CCN(S(=O)(=O)C3CC3)CC2)cn1	4.125	2.206	7.071	3.226
Cc1nc(CNC(=O)Nc2cc(F)ccc2N2CCN(C)CC2)no1	-20.85	5.661	14.16	2.679
c1csc(CN2CCCn3cnc(COCC4CC4)c3C2)n1	-23.19	4.951	27.78	6.468
COc1ccc(CNC(Cn2cncn2)c2ccccc2)cc1O (configuration not stated)	-17.37	2.281	-8.219	9.189
O=C(c1ccnnc1)N1CCn2cc(CN3CCCCC3)nc2C1	-43.28	3.56	18	6.863
COCC(=O)NC(C)Cc1cccc(Cl)c1 (configuration not stated)	-8.813	2.26	21.43	7.692
Cc1cnn(CC(=O)NCC2CCN(c3cc(Cl)ccc3C)C2)c1 (configuration not stated)	-17.43	-1.118	10.19	6.158
O=C(c1ccc[nH]1)N1CCc2nnc(Cn3cccc3)n2CC1	13.96	6.019	9.615	11.73
c1cncc(OC[C@@H]2CCC[C@@]23CN(Cc2nccs2)CCO3)c1	-12.14	4.478	26	9.804
CCOC(=O)NC(CNC(=O)c1cc(Cl)ccn1)CC(C)C (configuration not stated)	-16.95	-1.346	22.95	0
CCC[C@H]1CN(C2CCOCC2)C[C@@H]1NC(=O)CCn1ccnc1C	-12.72	-0.9569	-1.316	5.419
CC(C)c1nc(C2CCCN(C(=O)CCn3ccnc3)C2)no1 (configuration not stated)	-31.8	-2.553	28.57	-3.008
CN(C)C(=O)c1cccc(NC(=O)Cc2cc(F)ccc2F)n1	-25.99	3.877	19.74	8.374
Cc1cccc(S(=O)(=O)N2CCC3(CC2)CC(N(C)C)CO3)c1 (configuration not stated)	4.099	7.602	10	-1.031
CCS(=O)(=O)N1CCCCC1c1nc(CC(C)C)no1 (configuration not stated)	-15	4.994	16.05	1.339
Cn1ccc(CN2CCOCC23CCNCC3)n1	-36.98	4.868	23.08	5.882
c1ccc2nc(N3CCCCC3)c(NCc3nnc4n3CCC4)nc2c1	-14.07	3.666	6.061	11.96
Cc1nc(C)n(CC2CCCN2Cc2nc(-c3ccccn3)no2)n1 (configuration not stated)	-14.12	-0.4196	14.29	4.142
O=C(c1ccsc1)N1CCc2nnc(COc3cncnc3)n2CC1	-6.167	-0.6085	29.91	-0.5348
CCOCC1CN(Cc2ccoc2)Cc2nn(CC3CC3)cc21 (configuration not stated)	-5.695	2.83	9.615	6.952
O=C(Cc1ccccc1)N1Cc2nccn2CC(CN2CCCC2)C1 (configuration not stated)	-16.11	1.207	29.41	7.882
O=C(c1cc[nH]n1)N1CCc2ncnc(NCc3ccccn3)c2CC1	-29.4	-3.485	11.67	6.494
CN(Cc1cc(Br)cn1C)C(=O)c1cccnc1	4.191	0.1386	13.73	6.173
Cc1cnccc1NCCn1ccnc1C1CCOC1 (configuration not stated)	-23.53	2.589	4.478	6.383
Cc1cnn(CC2CCCN2c2nn3cc(C)nc3s2)c1 (configuration not stated)	-20.6	5.759	16.22	0.3759
CCN1CC(c2ccccc2)CC2(CCN(Cc3ncc[nH]3)CC2)C1 (configuration not stated)	-	2.61	11.76	3.704
COc1ccc2c(c1)OC1(CCN(Cc3ccc(F)cc3)CC1)CC2=O	-5.747	1.824	19.51	7.519
O=C(CCNc1ncccn1)NCc1cccc(OC(F)F)c1	-27.56	2.971	15	6.494
Cn1ccc(CN2CCC(CO)CC2)cc1=O	-2.637	5.154	13.51	0.3759
COc1ccc(C(C)=O)cc1CN1CCn2cccc2C1C (configuration not stated)	0.5223	8.852	52.68	28.33
CN(C)S(=O)(=O)c1ccc(CNC(=O)C2CC2)cc1	-10.87	5.388	9.821	8.621
O=C(NCC1(O)COCCN(Cc2ccc(O)cc2)C1)c1cnccn1 (configuration not stated)	-9.315	2.063	2.817	0
c1cnc2c(C3CCN(Cc4ccsc4)CC3)n[nH]c2n1	-35.87	0.7808	22.22	-2.703
COc1ncccc1NC(=O)N(Cc1ccc(C(N)=O)cc1)C1CC1	-5.652	0.3873	9.615	0.5714
CCSCCC(=O)Nc1ncn(Cc2cccnc2)n1	-10.87	4.828	12.62	4.564
CCOC(C)c1nccn1Cc1noc(CC)n1 (configuration not stated)	-22.07	4.922	7.865	1.554
O=C(Cc1ccsc1)N1C[C@@H]2OCCN(c3cnccn3)[C@@H]2C1	10.8	-2.297	4	-1.149
COc1ncccc1C(=O)N1C[C@@H]2COC[C@]2(CN(C)C)C1	16.71	-2.56	-1.709	0
O=c1n(CCSCc2ccccc2F)nc2ccccn12	-11.68	3.546	13.33	-1.887
COc1cccc(N2CCC(CNC(=O)N(C)Cc3ccco3)C2)c1 (configuration not stated)	-7.284	4.327	27.27	17.42
CNS(=O)(=O)c1csc(C(=O)N(C)Cc2ccccc2C)c1	51.56	9.552	8.219	-15.87
CC(=O)N1CCN(c2ccccc2CNc2cc(F)cc(F)c2)CC1	-11.52	-2.772	8.219	6.316
O=C(NCCSc1ccccc1)[C@H]1CNC[C@H](C(=O)N2CCOCC2)C1	-10.12	3.77	0	2.4
COCc1cnc2n1CCN(C1CCC1)C2C (configuration not stated)	-24.95	4.002	11.11	4.478
CC(C)N1CCC2(CC1)C[C@@H](O)[C@H](c1ccccc1)NC2=O	4.255	-1.702	11.72	6.084
CCn1cc(NC(=O)C(C)n2ncc(Cl)c2C)c(C(=O)NCC(C)C)n1 (configuration not stated)	-10.59	5.495	16.81	2.212
Cc1ccc(C(=O)N2CCN(C(=O)C(C)n3ccnc3)CC2)cc1F (configuration not stated)	-16.34	2.897	8.065	0.6494
c1ccc2c(N3CCCCC3)cnnc2c1	-1.161	3.132	17.65	10.05
COCCCS(=O)(=O)N1CCN(C(C)(C)CO)CC1	-3.401	-0.9375	3.448	5.155
CCC(=O)Nc1ccc2c(ccn2CCOC)c1	-	2.684	16.98	3.333
CCN1CCCC12CCN(C(=O)c1nccn1C)CC2	-33.52	1.196	11.11	1.604
O=C(CN1CCCC(CO)C1)NCCOc1cccc(Cl)c1 (configuration not stated)	-9.406	7.813	25.25	7.097
O=C(c1cccnc1)N1CCOC(Cc2ccccc2Cl)C1 (configuration not stated)	-5.457	0.3701	4.196	0
O=C(C1CCCN1c1ncnc2ccsc12)N1CCSCC1 (configuration not stated)	-27.02	7.269	9.524	1.01
CCn1nc(CNC(=O)C2CCCN(C(=O)COC)C2)c2ccccc21 (configuration not stated)	-37.19	2.515	2.632	5.028

6 of the entries, repeated:

{"compound": "CCOCC1CN(Cc2ccoc2)Cc2nn(CC3CC3)cc21", "stereo": "configuration not stated", "Pks13 thioesterase": -5.695, "PfKRS1": 2.83, "LiHisRS": 9.615, "TcHisRS": 6.952}
{"compound": "c1cnc2c(C3CCN(Cc4ccsc4)CC3)n[nH]c2n1", "Pks13 thioesterase": -35.87, "PfKRS1": 0.7808, "LiHisRS": 22.22, "TcHisRS": -2.703}
{"compound": "O=C(CN1CCCC(CO)C1)NCCOc1cccc(Cl)c1", "stereo": "configuration not stated", "Pks13 thioesterase": -9.406, "PfKRS1": 7.813, "LiHisRS": 25.25, "TcHisRS": 7.097}
{"compound": "CC(C)c1nc(C2CCCN(C(=O)CCn3ccnc3)C2)no1", "stereo": "configuration not stated", "Pks13 thioesterase": -31.8, "PfKRS1": -2.553, "LiHisRS": 28.57, "TcHisRS": -3.008}
{"compound": "COc1ncccc1NC(=O)N(Cc1ccc(C(N)=O)cc1)C1CC1", "Pks13 thioesterase": -5.652, "PfKRS1": 0.3873, "LiHisRS": 9.615, "TcHisRS": 0.5714}
{"compound": "Cn1ccc(CN2CCC(CO)CC2)cc1=O", "Pks13 thioesterase": -2.637, "PfKRS1": 5.154, "LiHisRS": 13.51, "TcHisRS": 0.3759}

Source: ChEMBL document CHEMBL3988442, “University of Dundee, Small-Polar-MMV Screening Library” (2021).